Laboratory results reported in patent US20030073199A1 (SCHERING, published 2003).
No constants are given. Whether binding was seen depends on the method and setting. Some results given as binding are weak or reduced against the parent protein; the word gives no strength. Where a sequence is shown, tags or fusion partners need not be part of it.

Target: prokaryotic recombinant histidine-tagged AK155 (His-AK155) (human) (UniProt Q9NPH9)
Experiment: SDS-PAGE with and without heating in mercaptoethanol (about 36 kDa against about 19 kDa)

B1: prokaryotic recombinant histidine-tagged AK155 (His-AK155) (ligand, not shown: small tags and cut ends)
chain: KHKQSSFTKSCYPRGTLSQAVDALYIKAAWLKATIPEDRIKNIRLLKKKTKKQFMKNCQFQEQLLSFFMEDVFGQLQLQGCKKIRFVEDFHSLRQKLSHCISCASSAREMKSITRMKRIFYRIGNKGIYKAISELDILLSWIKKLLESSQ
In the case of B1, the binding is reported as “binds”.
